Measurements as given in doi:10.1101/2022.05.24.493321.
For at least one entry, the source does not settle the construct or the ends of the probe. For some of these results: A weaker result is weaker than the reference pair of the same experiment. At least one verdict was read from the data and is not stated in words by the source. For some of these results: Tags and fusion partners may be left off the protein sequences shown.

Chains of the proteins cited; added tags and fusions are not shown.
UniProt P61244, whole entry: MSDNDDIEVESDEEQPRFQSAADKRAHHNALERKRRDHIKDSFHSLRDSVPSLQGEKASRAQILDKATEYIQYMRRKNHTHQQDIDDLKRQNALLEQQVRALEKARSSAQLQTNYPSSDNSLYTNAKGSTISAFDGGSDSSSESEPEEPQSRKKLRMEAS

Experiments:
MAX (Homo sapiens) [1] = target: MAX (Homo sapiens) (UniProt P61244); experiment: k-MITOMI; conditions: dissociation measured; protein translated in vitro
Pho4 (S. cerevisiae) [2] = target: T1, Pho4 (S. cerevisiae) (UniProt P07270); experiment: k-MITOMI; conditions: dissociation measured; protein translated in vitro
T1 sequence (looked up, limits assumed): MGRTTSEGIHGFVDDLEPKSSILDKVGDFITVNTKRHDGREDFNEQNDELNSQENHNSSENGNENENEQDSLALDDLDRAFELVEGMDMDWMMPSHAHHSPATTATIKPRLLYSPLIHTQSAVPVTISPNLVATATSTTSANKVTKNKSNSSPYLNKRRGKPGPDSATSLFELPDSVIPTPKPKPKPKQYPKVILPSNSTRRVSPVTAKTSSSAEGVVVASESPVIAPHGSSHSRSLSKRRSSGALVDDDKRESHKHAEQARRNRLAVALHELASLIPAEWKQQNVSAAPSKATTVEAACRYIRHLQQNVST

MAX (Homo sapiens) [3] = target: MAX (Homo sapiens) (UniProt P61244); experiment: MITOMI; conditions: protein translated in vitro
Pho4 (S. cerevisiae) [4] = target: T1, Pho4 (S. cerevisiae); experiment: MITOMI; conditions: protein translated in vitro
[5] = STR flanks, Kd and koff measured

Q: Does “CGCACTGACTGACTGACTGACTGACTGACTGACTGACTGACTGACTGACTGACTGACTGACTGGTCACGTGACCAGTCAGTCAGTCAGTCAGTCAGTCAGTCAGTCAGTCAGTCAGTCAGTCAGTCAGTCAGTCGTCCGGCGGTATGAC (double strand) [ACTG/AGTC 60bp]” bind (MAX (Homo sapiens) [1])?
A: Result: binds

Q: Does “CGCACTGACTGACTGACTGACTGACTGACTGACTGACTGACTGACTGACTGACTGACTGACTGGTCACGTGACCAGTCAGTCAGTCAGTCAGTCAGTCAGTCAGTCAGTCAGTCAGTCAGTCAGTCAGTCAGTCGTCCGGCGGTATGAC (double strand) [ACTG/AGTC 60bp]” bind (Pho4 (S. cerevisiae) [2])?
A: Result: binds

Q: What does the source list for “CGCATATATATATAGAGTCACGCGACTCTCGCGCGCGCGGTCCGGCGGTATGAC (double strand) [Mutated motif + AT/CG repeat 1]”?
A: binding result (MAX (Homo sapiens) [3]; weak E-box): binds more weakly; binding result (Pho4 (S. cerevisiae) [4]; weak E-box): binds more weakly

Q: Does “CGCATATATATATAGAGTCACGTGACTCTCGCGCGCGCGGTCCGGCGGTATGAC (double strand) [Motif + AT/CG repeat 1]” bind (MAX (Homo sapiens) [3]; [5])?
A: Result: binds

Q: Does “CGCATATATATATAGAGTCACGTGACTCTCGCGCGCGCGGTCCGGCGGTATGAC (double strand) [Motif + AT/CG repeat 1]” bind (Pho4 (S. cerevisiae) [4]; [5])?
A: Result: binds

Q: Does “CGCATATATATATATATATATCGCGCGCGCGCGCGCGCGGTCCGGCGGTATGAC (double strand) [No motif + AT/CG repeat 3]” bind (MAX (Homo sapiens) [3]; no motif, Kd used in model fit)?
A: Result: binds more weakly

Q: Does “CGCATATATATATATATATATCGCGCGCGCGCGCGCGCGGTCCGGCGGTATGAC (double strand) [No motif + AT/CG repeat 3]” bind (Pho4 (S. cerevisiae) [4]; no motif, Kd used in model fit)?
A: Result: binds more weakly

Q: Does “CGCATCGATCGATCGATCGATCGATCGATCGATCGATCGATCGATCGATCGATCGATCGATCGGTCACGTGACCGATCGATCGATCGATCGATCGATCGATCGATCGATCGATCGATCGATCGATCGATCGATCGTCCGGCGGTATGAC (double strand) [ATCG/ATCG 60bp]” bind (MAX (Homo sapiens) [3]; deleterious vs random flanks)?
A: Result: binds more weakly

Q: Does “CGCATCGATCGATCGATCGATCGATCGATCGATCGATCGATCGATCGATCGATCGATCGATCGGTCACGTGACCGATCGATCGATCGATCGATCGATCGATCGATCGATCGATCGATCGATCGATCGATCGATCGTCCGGCGGTATGAC (double strand) [ATCG/ATCG 60bp]” bind (Pho4 (S. cerevisiae) [2])?
A: Result: binds

Q: What does the source list for “CGCCACACACACACATGTCACGTGACATGTGTGTGTGTGGTCCGGCGGTATGAC (double strand) [Motif + AC/GT repeat 1]”?
A: binding result (MAX (Homo sapiens) [3]; [5]): binds; binding result (Pho4 (S. cerevisiae) [4]; [5]): binds

Q: Does “CGCCCCAGCACTGCCAAGCCGACGTTAAAACGGGTTGCTTCATCAATCGAATGTCAATACATAGTCACGTGACACGCGGTAGGCTCGCTATCGGCACTTGCGCTTGAGTGCATCGAATAGTTCGGTTTATGAGCGTCCGGCGGTATGAC (double strand) [Random 1 (Library 2)]” bind (MAX (Homo sapiens) [3]; random-flank reference)?
A: Result: binds

Q: Does “CGCCCCAGCACTGCCAAGCCGACGTTAAAACGGGTTGCTTCATCAATCGAATGTCAATACATAGTCACGTGACACGCGGTAGGCTCGCTATCGGCACTTGCGCTTGAGTGCATCGAATAGTTCGGTTTATGAGCGTCCGGCGGTATGAC (double strand) [Random 1 (Library 2)]” bind (Pho4 (S. cerevisiae) [4]; random-flank reference)?
A: Result: binds

Q: Does “CGCCCCAGCACTGCCAAGGGAGAGAGAGAGAGAGAGAGAGAGAGAGAGAGAGAGAGAGAGAGAGTCACGTGACTCTCTCTCTCTCTCTCTCTCTCTCTCTCTCTCTCTCTCTCTCTCTAGTTCGGTTTATGAGCGTCCGGCGGTATGAC (double strand) [AG/CT 45bp]” bind (MAX (Homo sapiens) [3]; disfavored repeat, effect saturates after ~40 nt)?
A: Result: binds more weakly

Q: Does “CGCGAGAGAGAGAGAGAGAGAGAGAGAGAGAGAGAGAGAGAGAGAGAGAGAGAGAGAGAGAGAGTCACGTGACTCTCTCTCTCTCTCTCTCTCTCTCTCTCTCTCTCTCTCTCTCTCTCTCTCTCTCTCTCTCCGTCCGGCGGTATGAC (double strand) [AG/CT 60bp]” bind (MAX (Homo sapiens) [3]; deleterious vs random flanks)?
A: Result: binds more weakly

Q: Does “CGCGAGAGAGAGAGAGAGAGAGAGAGAGAGAGAGAGAGAGAGAGAGAGAGAGAGAGAGAGAGAGTCACGTGACTCTCTCTCTCTCTCTCTCTCTCTCTCTCTCTCTCTCTCTCTCTCTCTCTCTCTCTCTCTCCGTCCGGCGGTATGAC (double strand) [AG/CT 60bp]” bind (Pho4 (S. cerevisiae) [2])?
A: Result: binds

Q: Does “CGCGTACGTACGTACGTACGTACGTACGTACGTACGTACGTACGTACGTACGTACGTACGTACGTCACGTGACGTACGTACGTACGTACGTACGTACGTACGTACGTACGTACGTACGTACGTACGTACGTACCGTCCGGCGGTATGAC (double strand) [ACGT/ACGT 60bp]” bind (MAX (Homo sapiens) [1])?
A: Result: binds

Q: Does “CGCGTACGTACGTACGTACGTACGTACGTACGTACGTACGTACGTACGTACGTACGTACGTACGTCACGTGACGTACGTACGTACGTACGTACGTACGTACGTACGTACGTACGTACGTACGTACGTACGTACCGTCCGGCGGTATGAC (double strand) [ACGT/ACGT 60bp]” bind (Pho4 (S. cerevisiae) [2])?
A: Result: binds
